# PubChem BioAssay AID1487 (National Center for Advancing Translational Sciences (NCATS), 2009)
# Among all 200,000 compounds or so, about 25 (0.01%) were called active. This list was built around the results that the source calls inconclusive (neither active nor inactive); the mix of calls is not that of the screen. Calls come from the whole dose curve; as a rule, active = well fitted inhibition curve with a large enough effect in the signal ratio, with a control signal flat (not every such curve was filed as active); inconclusive = small, poorly fitted or top-dose-only effect, or effect the other way, or a change in a side signal; inactive = flat fitted curve, though single readings scatter; the % refers to the signal ratio. A potency beside an inconclusive call is a rough fit, not a confirmed value.
# Experiment: qHTS Assay for Modulators of Lamin A Splicing
# Details: HeLa LMNA splicing GFP/RFP minigene ratio, 48 h; ratio change, negative = inhibition: at 46.1 µM (top of the series) unless noted
# Method in brief: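 Read-out is the ratio of GFP to DsRed2 object intensity, acquired by 488 nm laser-scanning cytometry on HeLa lamin A-EGFP minigene reporter cells. Compound incubation 48 hrs at 37 °C in Opti-MEM with 2% FBS; DMSO 0.5% final.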
# % is set by controls: 0 for no effect and ±100 for the full control effect; potency is the fitted concentration of half-maximal effect.
SMILES,"ratio change, negative = inhibition",Potency
COCc1cc(/C=N\NC(=O)Cc2ccc(Cl)cc2)ccc1OC,inconclusive: -7.16%,
CN(C)CCCNc1ncnc2c1cnn2-c1ccccc1,inconclusive: 8.36% [at 46 µM],
Cc1ccc2c(c1)c1c(n2CC(O)Cn2c(C)nc3ccccc32)CCCC1 (stereo unspecified),,"inconclusive: 12.6 µM [cytotoxic, partial curve]"
O=C(NCc1ccc(F)cc1)c1cccc(S(=O)(=O)N2CCCC2)c1,inactive: 4.41%,
CCC(=O)NC(=S)Nc1ccc(S(=O)(=O)NC(C)C)cc1,inconclusive: 5.07%,
CCCCCCC(=O)N1CCC(c2nc3c(nnn3Cc3ccccc3Cl)c(=O)[nH]2)CC1,inconclusive: 37.3%,
COc1cccc(C(=O)NNC(=O)Cc2cccs2)c1,inconclusive: 17.6% [at 46 µM],
CCOc1ccc(CC(=O)OCn2nnc3ccccc3c2=O)cc1,inconclusive: 10.1% [at 9.22 µM],
CN(C)c1ccc(C(CNC(=O)c2ccccc2F)N2CCc3ccccc32)cc1 (stereo unspecified),inconclusive: -42.3% [at 46 µM],
CN1CCN(C(=O)c2cnn(-c3cccc(Cl)c3)c2C2CCN(C(=O)OC(C)(C)C)CC2)CC1,inactive: -13.2% [at 46 µM],
O=C(Nc1ccc(F)cc1)C1=CC(=O)N2CCN=C2S1,inactive: -19.3% [at 46 µM],
CCOC(=O)C1(Cc2ccccc2)CCN(Cc2cccn2-c2cccnc2)CC1,inconclusive: 9.68% [at 46 µM],
COc1ccc(-c2cnnc(N/N=C/c3ccc(O)c(O)c3)n2)cc1,inconclusive: -31.9%,
CC1=NN(C(=O)COc2ccccc2)C(O)(c2cccnc2)C1 (stereo unspecified),inconclusive: -3.04% [at 46 µM],
Cc1ccc(NC(=O)CSc2nc3ccccc3c3nc(CCn4cncc4C)nn23)c(C)c1,inconclusive: -22.7% [at 46 µM],
O=C(NCc1ccc(F)cc1)C(=O)NCC1OCCN1S(=O)(=O)c1cccs1 (stereo unspecified),inconclusive: 11.7%,
Nc1nc(C(F)(F)F)cc(=O)n1N,inactive: -18.9% [at 46 µM],
O=c1c(-c2ccccc2)nc2cnc(Oc3cccc(Cl)c3)nc2n1C1CC1,inconclusive: -22.5%,
Cc1nc(-c2ccc(Cl)cc2)sc1C(=O)O,inconclusive: 24.3% [at 9.22 µM],
O=C1NCCCc2c1no[n+]2[O-],inactive: -1.23%,
Fc1ccc(C(Nc2ccc(Cl)c(C(F)(F)F)c2)c2nnc(-c3ccccc3)o2)cc1 (stereo unspecified),inconclusive: -21.5% [at 46 µM],

SMILES,"ratio change, negative = inhibition",Potency
CCOC(=O)C(CC)Sc1ccc2nnc(CCNS(=O)(=O)c3ccccc3)n2n1 (stereo unspecified),inconclusive: 1.51% [at 46 µM],
CC1CCCC(C)N1CC(O)COc1c(F)cc(Br)cc1F (stereo unspecified),inconclusive: -30.7% [at 46 µM],
Cc1ccc(N2C(=O)c3ccccc3NC2C(C)Cc2ccc3c(c2)OCO3)cc1 (stereo unspecified),,"inconclusive: 35.5 µM [falling, single point]"
COc1ccc(CC(=O)NC(C)c2nnc(SCC(=O)Nc3ccccc3F)n2C)cc1 (stereo unspecified),inconclusive: 5.29% [at 46 µM],
CCC(C(=O)OCC(=O)Nc1cccc(S(=O)(=O)NC2=NCCCCC2)c1)c1ccccc1 (stereo unspecified),inconclusive: -24.2% [at 46 µM],
Cn1c(=O)n(CCc2ccccc2)c(=O)c2c1ncn2Cc1ccccc1,inconclusive: 3.2%,
COc1ccc(N(CC(=O)N/N=C/c2ccc3c(c2)OCO3)S(=O)(=O)c2ccc(NC(C)=O)cc2)cc1,inconclusive: -12.6% [at 46 µM],
Cc1ccc(NC(=O)CCNC(=O)c2ccc([N+](=O)[O-])cc2)cc1S(=O)(=O)N(C)C,,"inconclusive: 35.5 µM [inhibitor, single point]"
Cc1ccc2c(c1)-c1onc(C(=O)N3CCN(c4cccc(C)c4C)CC3)c1CO2,inconclusive: -24.2% [at 46 µM],
Fc1ccc(NC(=S)N2CCCc3ccccc32)cc1,,"inconclusive: 20 µM [fluorescent, single point]"
O=P1(c2ccccc2)C=Cn2c1cc1c2CCCC1 (stereo unspecified),inconclusive: 5.49%,
O=[N+]([O-])c1ccc2c(c1)nc1n2CCN(CC2CCCO2)C1 (stereo unspecified),inconclusive: 7.31% [at 46 µM],
COCCn1c(C)cc(C(=O)CN2CCCCC2)c1C,inconclusive: 11.3% [at 46 µM],
O=C(c1cccc2ccccc12)N1CCC(N2CCN(c3ccccc3)CC2)CC1,inconclusive: 7.4%,
Cc1cccc(NC(=O)CSc2nc3ccccc3c3nc(CCn4cncc4C)nn23)c1,inconclusive: -8.68% [at 46 µM],
Cc1cccc(N(Cc2ccc(Cl)cc2)S(C)(=O)=O)c1,,"inconclusive: 0.0794 µM [activator, full curve, poor fit]"
CCCOP(=O)(c1ccc(N(C)C)cc1)C(O)c1ccncc1 (stereo unspecified),inactive: 5.9%,
COc1ccc(OCc2nnc3n2N=C(c2ccc(OC)cc2)CS3)cc1,inactive: -12.9%,
COc1ccc([C@H]2[C@H](C(=O)OC(C)(C)C)N3N=Cc4ccccc4C3C23C(=O)c2ccccc2C3=O)c(OC)c1 (stereo partly specified),inconclusive: 7.88%,
Cc1ccccc1NC(=O)CSc1nnc(-c2cccc(Cl)c2)o1,inactive: 4.37% [at 46 µM],
CC(C)N(C(=O)COC(=O)c1cc(Cl)cc(Cl)c1N)C(C)C,inactive: 12.5%,

# Looked up above.
# Under ratio change, negative = inhibition, Cc1cccc(NC(=O)CSc2nc3ccccc3c3nc(CCn4cncc4C)nn23)c1 has inconclusive: -8.68% [at 46 µM]
# Under ratio change, negative = inhibition, Cc1ccc2c(c1)-c1onc(C(=O)N3CCN(c4cccc(C)c4C)CC3)c1CO2 has inconclusive: -24.2% [at 46 µM]

# Additional structures

SMILES,"ratio change, negative = inhibition",Potency
CC(C)NC(=O)c1onc(CSc2cccc(F)c2)c1C(=O)O,,"inconclusive: 25.1 µM [inhibitor, single point]"
CN1CCc2cc(NC(=O)Nc3cccnc3)ccc21,inactive: -15.2%,
COc1cc(Cl)c(NC(=O)CN(C)S(=O)(=O)c2ccc3[nH]c4c(c3c2)CCCC4)c(OC)c1,inconclusive: 15.8% [at 46 µM],
CC1=C(C#N)C(NC(=O)C2CC2)(C(F)(F)F)C(=O)N1 (stereo unspecified),inactive: -1.91%,
CCCn1c(SCC(=O)N2CCc3ccccc3C2)nc2c1c(=O)n(C)c(=O)n2C,inactive: 7.18%,
CC(C)(C)c1ccc(S(=O)(=O)N2CCC(c3ccncc3)CC2)cc1,inconclusive: -18.6% [at 46 µM],
O=C(NNc1nc(-c2ccccc2)cs1)c1ccccc1,,"inconclusive: 35.5 µM [inhibitor, single point]"
Cc1cc(NS(=O)(=O)c2ccc(NC(=S)NC(=O)c3ccc(F)cc3)cc2)no1,inactive: 5.32%,
CC1(c2ccccc2)NC(=O)N(CC(=O)NC(=O)NCc2ccco2)C1=O (stereo unspecified),inconclusive: 7.7%,
CC(=O)c1cc(CC(=O)N2CCc3c([nH]c4ccccc34)C2c2ccccn2)cs1 (stereo unspecified),inconclusive: -6.71% [at 46 µM],
COc1ccccc1NC(=S)N(Cc1ccc(Cl)cc1)CC1CCC(C(=O)O)CC1 (stereo unspecified),inactive: -2.16% [at 46 µM],
O=[N+]([O-])c1ccc(C2=NN(CCO)C(=Nc3ccc(OC(F)(F)F)cc3)SC2)cc1,inactive: 24% [at 46 µM],
Cc1cc(C)c(-c2csc(NC(=O)C3=NN(c4ccccc4)C(=O)CC3)n2)c(C)c1,,"inconclusive: 8.91 µM [fluorescent, partial curve, poor fit]"
Cc1cccc(N=C2Sc3nc4c(C)c(C)ccc4cc3CN2CCN2CCOCC2)c1,inactive: 1.82%,
COc1ncc2nc(-c3cn(C)c4ccccc34)c(=O)n(C[C@H]3CCCO3)c2n1,inactive: 9.08%,
OCCSc1nc(-c2ccccc2)nc2c1CCC2,inactive: -8.75%,
CC(=O)c1cccc(Nc2ncnc3c2cnn3-c2cccc(Cl)c2)c1,inactive: -6.06% [at 46 µM],
OCCC1CN(Cc2cccc3c2OCO3)CCN1C1CCCCC1 (stereo unspecified),inconclusive: 14.2% [at 46 µM],
Cc1cc(C(=O)OCC(=O)c2ccc(Br)s2)no1,inactive: 5.03%,
Cc1cc(NC(=O)CSc2ccc3nnc(CCNS(=O)(=O)c4ccccc4)n3n2)no1,inconclusive: 3.37% [at 9.22 µM],
Cc1cccc(CNc2ccnc(-c3ccccc3Cl)n2)c1,inconclusive: -19.9%,

SMILES,"ratio change, negative = inhibition",Potency
CCOc1cc(N2CCOCC2)c(OCC)cc1NC(=O)c1ccc2ccccc2n1,inconclusive: -9.25% [at 46 µM],
CCOc1ccc(-c2cccc(NS(=O)(=O)c3ccc(Cl)s3)c2)nn1,inconclusive: -6.08% [at 46 µM],
COc1ccc(CCNC(=O)Cn2cc(C(F)(F)F)cc(Cl)c2=O)cc1OC,inconclusive: 7.23%,
CCC(=O)N1N=C(c2ccc(NS(=O)(=O)CC)cc2)CC1c1ccc(C)cc1 (stereo unspecified),inconclusive: 7.29% [at 9.22 µM],
CCCCn1c2c(c3ccccc31)CCc1nonc1-2,inconclusive: 9.99%,
Clc1ccc(-c2c[n+]3c(n2-c2ccccc2)SCC3)cc1,inconclusive: -39.2% [at 46 µM],
COc1ccc(N(C(=O)CNC(=O)c2ccco2)C(C(=O)NC2CCCCC2)c2ccco2)cc1 (stereo unspecified),inactive: -1.63%,
COc1ccc(N2CCN(c3oc(COc4ccc(Cl)cc4)nc3C#N)CC2)cc1,inconclusive: -15.5%,
O=C(Oc1cccc(C(=S)N2CCCCC2)c1)c1ccccc1,inconclusive: 11.5% [at 46 µM],
Cc1ccc(Cl)cc1NC(=O)Cn1c(=O)oc2cc(S(=O)(=O)N3CCCCCC3)ccc21,inconclusive: 161% [at 46 µM],
COc1cc2c(cc1OC)CN(Cc1nc3ccsc3c(=O)[nH]1)CC2,inactive: 1.86%,
Cc1nc(SCC(=O)Nc2c(C)n(C)n(-c3ccccc3)c2=O)n[nH]1,inactive: 0.171%,
COC(=O)c1ccc(N2CCN(S(=O)(=O)c3ccc(C)cc3)CC2)c([N+](=O)[O-])c1,inactive: -11.8%,
c1ccc(Nc2cc(-c3ccoc3)ncn2)cc1,inconclusive: -26.2%,
Cc1cccc(C)c1OCC(=O)N/N=C/C=C/c1ccco1,,"inconclusive: 35.5 µM [rising, partial curve]"
O=C(CCNS(=O)(=O)c1cccc2nsnc12)Nc1ccc2c(c1)OCCO2,inactive: -4.01%,
O=C(Nc1nc(-c2ccccc2)cs1)C1c2ccccc2Oc2ccccc21,inactive: 8.72%,
COc1cccc(C(=O)NCC(=O)OCC(=O)Nc2ncc(Cl)cc2Cl)c1,inactive: -4.12% [at 9.22 µM],

# Taken from above, 2 compounds:
SMILES,"ratio change, negative = inhibition",Potency
COc1ccc(CCNC(=O)Cn2cc(C(F)(F)F)cc(Cl)c2=O)cc1OC,inconclusive: 7.23%,
CCC(=O)N1N=C(c2ccc(NS(=O)(=O)CC)cc2)CC1c1ccc(C)cc1 (stereo unspecified),inconclusive: 7.29% [at 9.22 µM],
